Source: PubChem BioAssay AID1259308 (NCATS, 2017)
Screen: 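Candidate targets for better recombinant protein yield in mammalian cells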 (primary screen). Cell system: human HEK293 embryonic kidney cells stably expressing firefly luciferase (HEK-CMV-Luc2-Hygro). Knock-down reagent: single siRNA against human genes, 0.8 pmol siRNA per well. Duration: 72 h. Detection: 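Luciferase light (ONE-Glo) measured on one replicate plate set and viability (CellTiter-Glo) on the other, scaled to a negative control siRNA, with robust z-scores and luciferase per cell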. Direction: total luciferase, z-score and total luciferase, % of control: higher = more reporter protein produced. Active means: 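An siRNA counts as active if its total luciferase robust z-score exceeds 3; genes with two or more such siRNAs out of three were retested with fresh siRNAs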. Meaning of the calls: active = raised luciferase; inactive = no rise.
Shown is a random part of about 59,000 reagents. About 1,510 of all reagents (2.6%) were called active. 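Calls use total luciferase alone and ignore viability, so some active siRNAs may act by altering cell number.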 Unmarked entries are inactive. The numbers tell different reagents against one gene apart. Not all columns of the deposit are shown.

With NRP1 #1, how do the results read?
total luciferase, z-score: -0.588; total luciferase, % of control: 70.2

How did the screen score NRP1 #2?
total luciferase, z-score: -1.9; total luciferase, % of control: 44.2

With NRP1 #3, how do the results read?
total luciferase, z-score: 0.242; total luciferase, % of control: 86.7

For LINC02610 #1, what does the deposit list?
total luciferase, z-score: -1.31; total luciferase, % of control: 55.9

What is on record for LINC02610 #2?
total luciferase, z-score: 2.13; total luciferase, % of control: 124

Which result is listed for LINC02610 #3?
total luciferase, z-score: 0.108; total luciferase, % of control: 84

For LUC7L3 #1, how do the results read?
total luciferase, z-score: 0.247; total luciferase, % of control: 86.8

How did the screen score LUC7L3 #2?
total luciferase, z-score: 1.7; total luciferase, % of control: 116

How did the screen score LUC7L3 #3?
total luciferase, z-score: 3.2 (active); total luciferase, % of control: 146

Which result is listed for APOO #1?
total luciferase, z-score: 0.365; total luciferase, % of control: 89.2

For APOO #2, what was measured?
total luciferase, z-score: 0.818; total luciferase, % of control: 98.1

What is on record for APOO #3?
total luciferase, z-score: 1.61; total luciferase, % of control: 114

What is on record for CRIPAK (retired record) #1?
total luciferase, z-score: -0.637; total luciferase, % of control: 69.2

What did the screen give for CRIPAK (retired record) #2?
total luciferase, z-score: -0.775; total luciferase, % of control: 66.5

For CRIPAK (retired record) #3, what does the deposit list?
total luciferase, z-score: 0.211; total luciferase, % of control: 86.1

How did the screen score OR1A1 #1?
total luciferase, z-score: 1.15; total luciferase, % of control: 105

What is on record for OR1A1 #2?
total luciferase, z-score: 0.435; total luciferase, % of control: 90.5

Which result is listed for OR1A1 #3?
total luciferase, z-score: 0.112; total luciferase, % of control: 84.1

Which result is listed for PIERCE1 #1?
total luciferase, z-score: 0.214; total luciferase, % of control: 86.1

What did the screen give for PIERCE1 #2?
total luciferase, z-score: 0.362; total luciferase, % of control: 89.1

For PIERCE1 #3, what does the deposit list?
total luciferase, z-score: 0.047; total luciferase, % of control: 82.8

For PDZD4 #1, what does the deposit list?
total luciferase, z-score: 1.17; total luciferase, % of control: 105

How did the screen score PDZD4 #2?
total luciferase, z-score: 0.166; total luciferase, % of control: 85.2

For PDZD4 #3, what does the deposit list?
total luciferase, z-score: -0.328; total luciferase, % of control: 75.4

For OR4L1 #1, what was measured?
total luciferase, z-score: 0.109; total luciferase, % of control: 84

Which result is listed for OR4L1 #2?
total luciferase, z-score: -0.1; total luciferase, % of control: 79.9

What did the screen give for OR4L1 #3?
total luciferase, z-score: -0.18; total luciferase, % of control: 78.3

With PITPNC1 #1, what was measured?
total luciferase, z-score: 2.78; total luciferase, % of control: 137

For PITPNC1 #2, what does the deposit list?
total luciferase, z-score: -1.11; total luciferase, % of control: 59.8

What did the screen give for PITPNC1 #3?
total luciferase, z-score: -0.0467; total luciferase, % of control: 81

What is on record for PITPNC1 #4?
total luciferase, z-score: 3.24 (active); total luciferase, % of control: 146

For PITPNC1 #5, what was measured?
total luciferase, z-score: 0.461; total luciferase, % of control: 91.1

With PITPNC1 #6, how do the results read?
total luciferase, z-score: 1.08; total luciferase, % of control: 103

A stretch from the list above, as a working copy:
CRIPAK (retired record) #3 → total luciferase, z-score: 0.211; total luciferase, % of control: 86.1
OR1A1 #1 → total luciferase, z-score: 1.15; total luciferase, % of control: 105
OR1A1 #2 → total luciferase, z-score: 0.435; total luciferase, % of control: 90.5
OR1A1 #3 → total luciferase, z-score: 0.112; total luciferase, % of control: 84.1
